Experimental data reported in patent US20130164299A1.
Results are given in words; binding and its absence hold for the method and conditions named. Some entries that bind do so weakly or less than the wild type.

Amino acid sequences for entries named in this document (tags omitted). A change or cut given only in a name is not applied to a line headed by its entry.
UniProt Q9UHP7: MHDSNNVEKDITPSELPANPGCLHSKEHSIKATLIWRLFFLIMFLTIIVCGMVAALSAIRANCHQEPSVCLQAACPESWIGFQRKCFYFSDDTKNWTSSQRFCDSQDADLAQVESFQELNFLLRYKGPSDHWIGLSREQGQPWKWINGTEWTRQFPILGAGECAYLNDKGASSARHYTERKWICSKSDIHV

Experiments:
[1] = target: LLT1-Fc fusion protein (human) (UniProt Q9UHP7); test: ELISA, coated LLT1-Fc
[2] = target: LLT1-Fc fusion protein (human) (UniProt Q9UHP7); test: blocking assay by flow cytometry: binding of LLT1-Fc multimers to CD161 on 293T-CD161 cells in the presence of the antibody

binding [1]: binds
binding [2]: binds
B1: anti-LLT14F (antibody, mouse IgG1, V domains shown)
VH: EVQLVESGGGLVQPGGSLKLSCAASGFTVSSYGMSWVRQIPDKRLELVATINSNGGRTFYPDSVKGRFTISRDNAQNTLYLQMSSLKSEDTAMYYCARDGGYWAHFDYWGQGTTLTVSS
VL: DVLMTQTPLSLPVSLGDQASISCRSSQSIVHSNGNTYLEWYLQKPGQSPKLLIYKVSNRFSGVPDRFSGSGSGTDFTLKISRVEAEDLGVYYCFQGSHVPWTFGGGTKLEIKR
